Measured values: publication PMC11293870
These are yes or no findings as the source states them, for the method shown. Binding seen in cells or lysates may run through a third protein. Some binding calls cover weakened binding; strength is not graded here.

Protein sequences, listed by entry. Tags and fused reporters are not part of them. Lines headed by an entry give the natural chain unless they say otherwise; changes in a name come on top.
UniProt Q64261: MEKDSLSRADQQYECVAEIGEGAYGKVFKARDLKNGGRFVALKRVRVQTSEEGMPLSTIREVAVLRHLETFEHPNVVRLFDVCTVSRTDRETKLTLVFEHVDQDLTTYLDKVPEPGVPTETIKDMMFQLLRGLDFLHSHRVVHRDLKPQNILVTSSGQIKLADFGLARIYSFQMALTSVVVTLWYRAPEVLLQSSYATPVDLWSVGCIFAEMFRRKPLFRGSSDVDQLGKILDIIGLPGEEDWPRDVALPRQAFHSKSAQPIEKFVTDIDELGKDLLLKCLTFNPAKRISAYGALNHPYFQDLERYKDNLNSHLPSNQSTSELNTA

Experiments:
[1] = molecular target: T1, p16^INK4a-PPI reporter (pcDNA3.1-p16^INK4a-F[2]) (mouse) (UniProt P51480); assay: split reporter; Renilla luciferase protein-fragment complementation (RLuc PCA) PPI reporter: CDK4/CDK6-F[1] and p16^INK4a-F[2] (C-terminal fusions) transiently co-expressed for 48 hr in HEK293T cells, 24-well format; bioluminescence of intact cells in PBS after addition of h-coelenterazine
T1 sequence: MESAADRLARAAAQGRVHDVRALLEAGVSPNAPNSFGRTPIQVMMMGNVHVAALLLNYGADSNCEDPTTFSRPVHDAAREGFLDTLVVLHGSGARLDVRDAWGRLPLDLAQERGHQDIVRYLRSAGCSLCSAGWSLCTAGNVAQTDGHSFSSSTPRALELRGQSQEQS

[2] = molecular target: T2, p16^INK4a-PPI reporter (P40L) (pcDNA3.1-p16^INK4a-P40L-F[2]) (mouse) (UniProt P51480); assay: as above
T2 sequence: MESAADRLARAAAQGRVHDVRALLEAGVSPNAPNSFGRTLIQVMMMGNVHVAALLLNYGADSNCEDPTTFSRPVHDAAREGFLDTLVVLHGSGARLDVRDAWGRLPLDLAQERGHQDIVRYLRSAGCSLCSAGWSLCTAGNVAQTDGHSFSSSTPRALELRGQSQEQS

Molecule: CDK6-PPI reporter (pcDNA3.1-CDK6-F[1]) (from UniProt Q64261 1-326) (enzyme)
- binding [1]: binds
- binding [2]: no binding

Molecule: CDK6-PPI reporter (R31C) (pcDNA3.1-CDK6-R31C-F[1]) (from UniProt Q64261 1-326) (enzyme)
- binding [1]: binds

B1: CDK4-PPI reporter (pcDNA3.1-CDK4-F[1]) (enzyme, UniProt P30285 1-303)
chain: MAATRYEPVAEIGVGAYGTVYKARDPHSGHFVALKSVRVPNGGAAGGGLPVSTVREVALLRRLEAFEHPNVVRLMDVCATSRTDRDIKVTLVFEHIDQDLRTYLDKAPPPGLPVETIKDLMRQFLSGLDFLHANCIVHRDLKPENILVTSNGTVKLADFGLARIYSYQMALTPVVVTLWYRAPEVLLQSTYATPVDMWSVGCIFAEMFRRKPLFCGNSEADQLGKIFDLIGLPPEDDWPREVSLPRGAFAPRGPRPVQSVVPEMEESGAQLLLEMLTFNPHKRISAFRALQHSYLHKEESDAE
- binding [1]: binds
- binding [2]: no binding

B2: CDK4-PPI reporter (R24C) (pcDNA3.1-CDK4-R24C-F[1]) (enzyme, UniProt P30285 1-303)
chain: MAATRYEPVAEIGVGAYGTVYKACDPHSGHFVALKSVRVPNGGAAGGGLPVSTVREVALLRRLEAFEHPNVVRLMDVCATSRTDRDIKVTLVFEHIDQDLRTYLDKAPPPGLPVETIKDLMRQFLSGLDFLHANCIVHRDLKPENILVTSNGTVKLADFGLARIYSYQMALTPVVVTLWYRAPEVLLQSTYATPVDMWSVGCIFAEMFRRKPLFCGNSEADQLGKIFDLIGLPPEDDWPREVSLPRGAFAPRGPRPVQSVVPEMEESGAQLLLEMLTFNPHKRISAFRALQHSYLHKEESDAE
- binding [1]: binds
